Data set [1] in a line: folding stability dG unfold from trypsin proteolysis; higher = more stable. The gist of the method:
(§1)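 Bayesian fitting of sequencing counts gave K50 for each design. Unfolding free energy followed by setting this against a sequence-predicted unfolded-state K50 and a shared folded-state K50, either per protease or with trypsin and chymotrypsin combined. The designs, under 80 residues and lacking cysteine, were digested in a PA-tagged cDNA display format at 11 threefold-diluted protease concentrations and without protease, and only those with AlphaFold2 dimer inter-PAE above 15 were kept.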

The nature of data set [2]: folding stability dG unfold (combined trypsin and chymotrypsin); higher = more stable. The gist of the method:
as §1

Data set [3] can be described thus: folding stability dG unfold from chymotrypsin proteolysis; higher = more stable. In outline:
as §1

± gives the half width of the 95% confidence interval. For many entries, trypsin and chymotrypsin gave values far apart.

With “SAGGSDVSSLPSVVETQTTVTLPGGEKVPVTVKTFPEDSYTVETSPEGFERVTTADGVLVSLEKKSSAGGSA [r2_68_JUSTAS]”, the “folding stability dG unfold” value in data set [1] is -0.967 ± 0.23 kcal/mol; in data set [2] it was 0.784 ± 0.067 kcal/mol; in data set [3], 1.3 ± 0.024 kcal/mol.
Consider “SAGGSAGGSKEKVIEIKIKVKTKEEAKKKAEELAKELEKKGYKIKKVEIKYDKETKEVTVRIESAGGSAGGS [r20_155_TrROS_Hall]”, for which the “folding stability dG unfold” value in data set [1] stood at 3.9 ± 0.2 kcal/mol; in data set [2], 3.95 ± 0.12 kcal/mol; in data set [3], 4.02 ± 0.097 kcal/mol.
On the same counts, the results for “SAGGAEEARKAGRPVLLTVTVTAPGSGKVSTLPLLVPADRPVDVEALVAALFPADWAVTVSVSPVGGSAGGS [r8_127_JUSTAS]” are 1.32 ± 0.028 kcal/mol, 1.27 ± 0.11 kcal/mol and 1.37 ± 0.051 kcal/mol.
The corresponding values for “SAGGSAGGSALAEALAKALGIPAEVEITSDIEPDRPTVFSLRVREPGGGEELELPVVLPPGASAGGSAGGSA [r18_313_TrMRF]” are 0.819 ± 0.099 kcal/mol, 2.45 ± 0.18 kcal/mol and 3.27 ± 0.052 kcal/mol.
As for “SAMKIEYDSKTGTLTIKITIPIIKKLNPEEKKKLAEEIKNFIKKKFPNAKIEVHILPVESPEEAKKILKSAG [r14_406_TrMRF]”, the “folding stability dG unfold” value amounted to 1 ± 0.1 kcal/mol in data set [1], 2.71 ± 0.36 kcal/mol in data set [2] and 3.46 ± 0.089 kcal/mol in data set [3].
On to “SAGGSAGGSETIEIELTTEDGRKVRMRIEKNPDGSVTIYVFDEDGKLIAKIDLKTNKIEVRKASAGGSAGGS [r20_159_TrROS_Hall]”, for which the “folding stability dG unfold” value turned out to be 1.23 ± 0.075 kcal/mol in data set [1], 2.83 ± 0.15 kcal/mol in data set [2] and 3.44 ± 0.12 kcal/mol in data set [3].
On the same counts, the results for “SKKKKKKKKKKPKTVIIEIDVKEMSEEEIREILKKLPKNVKRVIIIAKSEEEKEKLKELLKEAGYEVEIVSA [r9_919_TrROS_Hall]” are 1.96 ± 0.18 kcal/mol, 1.76 ± 0.25 kcal/mol and 1.94 ± 0.069 kcal/mol.
The corresponding values for “SAGGLIEAIKEAIDQAPPGDEEVTIPIRFPNGTFVIEIRREKDKYKIEIEMQNPNGQKQEITITIEVSAGGS [r16_642_TrROS]” are 1.43 ± 0.091 kcal/mol, 1.65 ± 0.12 kcal/mol and 1.69 ± 0.089 kcal/mol.
The corresponding values for “SAGGGIKELLKKLPGIKKVEVKDDSVTITVEVDGKLYKIEIKVEKVKKKDGKEIKKVEIKIEEVELPSAGGS [r16_65_TrROS_Hall]” are 2.22 ± 0.16 kcal/mol, 4.55 ± 0.28 kcal/mol and 4.67 ± 0.21 kcal/mol.
Regarding “SAGGSAGGMHINAPGSIEELEEKLGGPIAEATLEGPGTFTLTLENGVPITVSFDDPEQLEELIESAGGSAGG [r6_13_TrMRF]”, the “folding stability dG unfold” value in data set [1] was 0.524 ± 0.059 kcal/mol; in data set [2], 0.387 ± 0.18 kcal/mol; in data set [3], 0.243 ± 0.16 kcal/mol.
On to “SAGEEVYLITVRIIDPETNEVKEITKLIKNKTEDEILEELRKLLEELGIELPEGAKVEITITKIKPPPESAG [r5_230_TrROS_Hall]”, for which the “folding stability dG unfold” value in data set [1] is 3.53 ± 0.52 kcal/mol; in data set [2], 4.26 ± 0.82 kcal/mol; in data set [3], 4.07 ± 0.44 kcal/mol.
On to “SAGGSAGGELTVELEFTLPDGYRVTVRATYRFDPTTNEWTVTRVEVTIEPVPPLPPLDPRGGPDSAGGSAGG [r6_506_TrMRF]”, for which the entries for the “folding stability dG unfold” value in data set [1], in data set [2] and in data set [3] were 1.18 ± 0.027 kcal/mol, 4.51 ± 0.11 kcal/mol and 4.85 ± 0.07 kcal/mol, respectively.
As for “GEERTFSLWVKTKSPQEARQLQEKIKDILRGPGYEVKIDDVEVSPNGWMKVNITMRPGMPQDRLRDALRKIS [r1_485_TrROS]”, the “folding stability dG unfold” value came out at 3.93 ± 0.082 kcal/mol in data set [1], 4.99 ± 0.07 kcal/mol in data set [2] and 5.24 ± 0.06 kcal/mol in data set [3].
Take “SAGGSAGGSKAKITSVSIVEENGELYISVNVEVEYTDSNGKKHTVKKTFIFKVKPGQSLEDLLSAGGSAGGS [r12_889_TrROS_Hall]”: the “folding stability dG unfold” value in data set [1] was determined as 2.94 ± 0.15 kcal/mol; in data set [2], 4.93 ± 0.2 kcal/mol; in data set [3] it was 5.14 ± 0.14 kcal/mol.
The corresponding values for “SAGGSAGGSAGGKIKVEVKKNKKTNKYTVTITVDGKKITLTFKSKEDAEEALKKLFPNLKSAGGSAGGSAGG [r7_841_TrROS_Hall]” are 2.68 ± 0.11 kcal/mol, 4.32 ± 0.085 kcal/mol and 4.7 ± 0.084 kcal/mol.
With “SAGGSAGGSMVYKVTVYIPESGETREFVDPGSEEEIKARVKELFPDPNVKVEITPIEASPELLSAGGSAGGS [r12_92_JUSTAS]”, the figures for the “folding stability dG unfold” value in data set [1], in data set [2] and in data set [3] were 2.11 ± 0.042 kcal/mol, 1.82 ± 0.045 kcal/mol and 1.51 ± 0.051 kcal/mol, respectively.
Consider “SAGGSAGGSAKKIKIKTKDGKEIEVEIVKYDPEKKEVYIYNKKTGKIYKFSKEDLKKILEELSAGGSAGGSA [r18_161_TrROS_Hall]”, for which the “folding stability dG unfold” value turned out to be 2.47 ± 0.088 kcal/mol in data set [1], 4.08 ± 0.36 kcal/mol in data set [2] and 4.62 ± 0.12 kcal/mol in data set [3].
Consider “SAGGSAGGSAGSNKVVTFVPRDPATGAPLGERPIPINSSSGSEIESIKKELPPEVVEIVESAGGSAGGSAGG [r17_339_JUSTAS]”, for which the “folding stability dG unfold” value was 0.605 ± 0.044 kcal/mol in data set [1], 1.01 ± 0.066 kcal/mol in data set [2] and 1.15 ± 0.02 kcal/mol in data set [3].
On the same counts, the results for “SAGGSAGGSAGGEKEPVTLLVVRVDGKLVVVSEEELKKLAEELNVEVEVRLVTVTKEELKSAGGSAGGSAGG [r7_185_TrROS_Hall]” are 0.567 ± 0.038 kcal/mol, 1.57 ± 0.085 kcal/mol and 1.94 ± 0.033 kcal/mol.
With “SAGGSAGGSAGMTRTVTFTITDPNSSNTTTITVPTTSEQDVAAAKAALKAANPNVTITLTSAGGSAGGSAGG [r11_233_JUSTAS]”, the entries for the “folding stability dG unfold” value in data set [1], in data set [2] and in data set [3] were 0.3 ± 0.12 kcal/mol, 0.718 ± 0.076 kcal/mol and 0.954 ± 0.092 kcal/mol, respectively.
As for “SAGGSAPSAKISRIEEKEDFVTVTVEAPPGTVVAIYDPKTGKVSYRPVAPGDTITVPKDAYIVDLTSAGGSA [r15_418_TrMRF]”, the “folding stability dG unfold” value in data set [1] is -0.588 ± 0.15 kcal/mol; in data set [2], 1.71 ± 0.11 kcal/mol; in data set [3] it was 2.25 ± 0.054 kcal/mol.
The corresponding values for “SDVVFDPVILAEFTLPAVPGADGRPRPVRVVLVGIRYLGPADTPPEVFEAVARAVVAELEAAGLPVVVLGGS [r1_305_TrMRF]” are 0.846 ± 0.018 kcal/mol, 3.11 ± 0.04 kcal/mol and 3.68 ± 0.023 kcal/mol.
As for “SAGGELVIKNPKTNKYFKVKPIEEITIKEYKFDKNGKLVEEKEIKISIFEIENEDGSKYTIKSIEIKSAGGS [r8_214_TrROS_Hall]”, the entries for the “folding stability dG unfold” value in data set [1], in data set [2] and in data set [3] were 1.49 ± 0.11 kcal/mol, 3.51 ± 0.4 kcal/mol and 3.75 ± 0.086 kcal/mol, respectively.
The corresponding values for “SAGGSAGGSMPVITVDPSIKEFKDEKGNKYLLTPVTVTLPNGVPVTVVYTTDPSTGKTTPATSGSAGGSAGG [r6_298_JUSTAS]” are 0.671 ± 0.059 kcal/mol, 0.62 ± 0.1 kcal/mol and 0.481 ± 0.12 kcal/mol.
“SAGGSAGGSYWFSITFKINFWVIDGNRIHPVPIEITILIKIPPIPPDEMKPEPTPDGEPKYDFSAGGSAGGS [r12_1031_TrROS]”: the “folding stability dG unfold” value in data set [1] came out at 2.73 ± 0.15 kcal/mol; in data set [2] it was 4.29 ± 0.23 kcal/mol; in data set [3] it was 4.64 ± 0.2 kcal/mol.
The corresponding values for “SAGGEIKVEEKDGKLVLTIKDKNGKELKITFTKNKNGEITMEVENKDTGKKYTFKFKSLEEALEALKSAGGS [r8_230_TrROS_Hall]” are 3.04 ± 0.23 kcal/mol, 5.82 ± 0.55 kcal/mol and 6.06 ± 0.29 kcal/mol.
For the sequence “SAGGSMKFKIKKIEVKVEKVTVTNENGEKKEFLKVEVKIEVEEEELSEEEKKKLEEEAEKLAKELASAGGSA [r2_40_TrROS_Hall]”, the figures for the “folding stability dG unfold” value in data set [1], in data set [2] and in data set [3] were 1.24 ± 0.18 kcal/mol, 2.61 ± 0.29 kcal/mol and 3.26 ± 0.14 kcal/mol, respectively.
The corresponding values for “SAGGSAGGPTLRLVVRDEDGNLYVFELEEVEDPEGRKYYRLRVTRVTLKDGKLEVETREVTLPVSAGGSAGG [r6_246_TrROS_Hall]” are 3.95 ± 0.066 kcal/mol, 5.96 ± 0.15 kcal/mol and 6.07 ± 0.086 kcal/mol.
With “SAGGSAGGSDNVKIEWEYNPENGVYTHEVYYDDGRPVTIIINPAEGPIWVFDPPDGKPIAPIPSAGGSAGGS [r12_657_TrROS]”, the “folding stability dG unfold” value in data set [1] amounted to 1.36 ± 0.05 kcal/mol; in data set [2] it was 1.07 ± 0.073 kcal/mol; in data set [3], 0.833 ± 0.023 kcal/mol.
The corresponding values for “SAGGSAKTVTVTVVIEMSPEDVEKLLEALRALLPPGATLTIVVLDKETNELYVFTITVPAPPPPEESAGGSA [r15_257_TrROS_Hall]” are 2.52 ± 0.1 kcal/mol, 4.12 ± 0.1 kcal/mol and 4.53 ± 0.083 kcal/mol.
For “SAGGSAGGSAGGKPPPKTLTVFILNEDGELTVFKVEEKDGKLKIEVEKMTLEELKKLKPSAGGSAGGSAGGS [r10_257_TrROS_Hall]”, the “folding stability dG unfold” value stood at 1.36 ± 0.14 kcal/mol in data set [1], 3.77 ± 0.29 kcal/mol in data set [2] and 4.31 ± 0.11 kcal/mol in data set [3].
On the same counts, the results for “SAGGSAGGSAGKIKIEKIEKIEIKYNPKTKKYTIRVTLKNGKKVEIEFSSLEEALEALKKSAGGSAGGSAGG [r11_339_TrROS_Hall]” are 2.29 ± 0.036 kcal/mol, 4.35 ± 0.078 kcal/mol and 4.704 ± 0.04 kcal/mol.
As for “SAGGSAGGSADGNKPPEIKINLEVERHPNGMVEITATLHWPGGKEFPVRIMYNPDKIFIEISAGGSAGGSAG [r3_259_TrROS]”, the “folding stability dG unfold” value in data set [1] is 2.95 ± 0.31 kcal/mol; in data set [2] it was 3.19 ± 0.14 kcal/mol; in data set [3], 3.4 ± 0.16 kcal/mol.
For “SAGGSAGGSMTILEEEVVPETGLVRILVKLPNGELLELEVDPSVGVTPVKVDGKPIFDVTVDPSAGGSAGGS [r12_789_JUSTAS]”, the “folding stability dG unfold” value in data set [1] worked out at 0.898 ± 0.038 kcal/mol; in data set [2], 1.19 ± 0.11 kcal/mol; in data set [3], 1.3 ± 0.082 kcal/mol.
Consider “SAGGEVELKIKIEIRVELNEDGELKVEIKIEIELRPKPEPELTEEERLAEELRKKYPGLSKEELEALLSAGG [r13_136_TrROS_Hall]”, for which the entries for the “folding stability dG unfold” value in data set [1], in data set [2] and in data set [3] were 2.87 ± 0.32 kcal/mol, 2.32 ± 0.27 kcal/mol and 1.63 ± 0.13 kcal/mol, respectively.

Source of the values: the supplement of paper PMC12764529.
